Data on five molecules can be found in article doi:10.1101/2022.05.18.492435.

By UniProt entry, the sequences of proteins in these tests, tags left out.
UniProt Q99496: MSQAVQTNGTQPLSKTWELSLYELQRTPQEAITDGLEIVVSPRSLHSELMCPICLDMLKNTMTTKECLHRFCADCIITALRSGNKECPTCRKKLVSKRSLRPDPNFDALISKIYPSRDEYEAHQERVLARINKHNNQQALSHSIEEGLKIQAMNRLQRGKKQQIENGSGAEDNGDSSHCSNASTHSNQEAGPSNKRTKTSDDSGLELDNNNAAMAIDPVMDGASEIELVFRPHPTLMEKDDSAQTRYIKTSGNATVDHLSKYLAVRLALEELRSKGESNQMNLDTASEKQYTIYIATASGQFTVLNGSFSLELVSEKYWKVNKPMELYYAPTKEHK
UniProt P35226: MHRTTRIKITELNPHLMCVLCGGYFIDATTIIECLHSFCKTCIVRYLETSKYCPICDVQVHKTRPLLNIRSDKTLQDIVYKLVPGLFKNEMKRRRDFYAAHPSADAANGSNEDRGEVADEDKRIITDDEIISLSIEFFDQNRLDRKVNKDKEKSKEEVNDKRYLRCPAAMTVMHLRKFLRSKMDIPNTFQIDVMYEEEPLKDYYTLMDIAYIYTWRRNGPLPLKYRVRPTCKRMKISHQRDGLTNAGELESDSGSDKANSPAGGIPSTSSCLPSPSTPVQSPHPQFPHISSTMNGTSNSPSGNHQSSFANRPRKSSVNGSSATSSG
UniProt Q9BSM1: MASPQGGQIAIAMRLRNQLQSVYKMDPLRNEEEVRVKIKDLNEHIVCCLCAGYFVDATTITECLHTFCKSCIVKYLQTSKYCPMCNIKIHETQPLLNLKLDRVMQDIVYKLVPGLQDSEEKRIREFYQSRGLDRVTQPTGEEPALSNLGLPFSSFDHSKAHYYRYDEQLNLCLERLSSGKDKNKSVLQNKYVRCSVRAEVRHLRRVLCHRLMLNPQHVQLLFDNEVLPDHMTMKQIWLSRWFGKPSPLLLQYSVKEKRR
UniProt Q86SE9: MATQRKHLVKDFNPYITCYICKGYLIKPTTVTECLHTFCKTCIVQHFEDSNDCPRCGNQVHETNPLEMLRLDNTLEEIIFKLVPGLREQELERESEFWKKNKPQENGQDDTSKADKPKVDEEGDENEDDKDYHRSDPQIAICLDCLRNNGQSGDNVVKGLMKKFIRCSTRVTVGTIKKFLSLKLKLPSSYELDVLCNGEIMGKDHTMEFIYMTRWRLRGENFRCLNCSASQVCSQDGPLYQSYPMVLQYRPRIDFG

Common to all, as to experiment: affinity purification with mass spectrometry
The target in assay [1] is RNF2 (human (endogenous in NT2)) (UniProt Q99496).
For assay [2], the target named is PCGF4 (human (endogenous in NT2)) (UniProt P35226).
In assay [3] the target is PCGF1 (human (endogenous in NT2)) (UniProt Q9BSM1).
For assay [4], the target named is T1, PCGF2 (human (endogenous in NT2)) (UniProt P35227).
T1 sequence: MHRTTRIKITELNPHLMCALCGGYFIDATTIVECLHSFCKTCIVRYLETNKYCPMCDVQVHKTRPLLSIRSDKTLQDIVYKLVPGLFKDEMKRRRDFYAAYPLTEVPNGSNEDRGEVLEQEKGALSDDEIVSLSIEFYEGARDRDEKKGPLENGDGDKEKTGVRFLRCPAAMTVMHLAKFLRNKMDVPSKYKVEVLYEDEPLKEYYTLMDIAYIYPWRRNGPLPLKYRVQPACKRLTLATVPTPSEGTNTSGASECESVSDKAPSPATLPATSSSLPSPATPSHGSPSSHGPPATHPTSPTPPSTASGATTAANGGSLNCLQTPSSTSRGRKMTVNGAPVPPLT

These are yes or no findings as the source states them, for the method shown. In cells and extracts the contact can be indirect. These calls come from enrichment with a bait or labelling near it, and not all partners need be listed.

For PCGF5 (from UniProt Q86SE9 1-256), in assay [1], the binding result was “binds”.

B1: PHC3 (protein, UniProt Q8NDX5 1-983)
chain: MDTEPNPGTSSVSTTTSSTTTTTITTSSSRMQQPQISVYSGSDRHAVQVIQQALHRPPSSAAQYLQQMYAAQQQHLMLHTAALQQQHLSSSQLQSLAAVQASLSSGRPSTSPTGSVTQQSSMSQTSINLSTSPTPAQLISRSQASSSTSGSITQQTMLLGSTSPTLTASQAQMYLRAQMLIFTPATTVAAVQSDIPVVSSSSSSSCQSAATQVQNLTLRSQKLGVLSSSQNGPPKSTSQTQSLTICHNKTTVTSSKISQRDPSPESNKKGESPSLESRSTAVTRTSSIHQLIAPASYSPIQPHSLIKHQQIPLHSPPSKVSHHQLILQQQQQQIQPITLQNSTQDPPPSQHCIPLQNHGLPPAPSNAQSQHCSPIQSHPSPLTVSPNQSQSAQQSVVVSPPPPHSPSQSPTIIIHPQALIQPHPLVSSALQPGPNLQQSTANQVQATAQLNLPSHLPLPASPVVHIGPVQQSALVSPGQQIVSPSHQQYSSLQSSPIPIASPPQMSTSPPAQIPPLPLQSMQSLQVQPEILSQGQVLVQNALVSEEELPAAEALVQLPFQTLPPPQTVAVNLQVQPPAPVDPPVVYQVEDVCEEEMPEESDECVRMDRTPPPPTLSPAAITVGRGEDLTSEHPLLEQVELPAVASVSASVIKSPSDPSHVSVPPPPLLLPAATTRSNSTSMHSSIPSIENKPPQAIVKPQILTHVIEGFVIQEGLEPFPVSRSSLLIEQPVKKRPLLDNQVINSVCVQPELQNNTKHADNSSDTEMEDMIAEETLEEMDSELLKCEFCGKMGYANEFLRSKRFCTMSCAKRYNVSCSKKFALSRWNRKPDNQSLGHRGRRPSGPDGAAREHILRQLPITYPSAEEDLASHEDSVPSAMTTRLRRQSERERERELRDVRIRKMPENSDLLPVAQTEPSIWTVDDVWAFIHSLPGCQDIADEFRAQEIDGQALLLLKEDHLMSAMNIKLGPALKICARINSLKES
On to B1, for which the binding entry in assay [2], in assay [3] and in assay [4] was “binds” throughout.

B2: PCGF3 (protein, UniProt Q3KNV8 1-242)
chain: MLTRKIKLWDINAHITCRLCSGYLIDATTVTECLHTFCRSCLVKYLEENNTCPTCRIVIHQSHPLQYIGHDRTMQDIVYKLVPGLQEAEMRKQREFYHKLGMEVPGDIKGETCSAKQHLDSHRNGETKADDSSNKEAAEEKPEEDNDYHRSDEQVSICLECNSSKLRGLKRKWIRCSAQATVLHLKKFIAKKLNLSSFNELDILCNEEILGKDHTLKFVVVTRWRFKKAPLLLHYRPKMDLL
On to B2, for which the binding result in assay [1] is listed as “binds”.

B3: PCGF6 (protein, UniProt Q9BYE7 1-350)
chain: MEGVAVVTAGSVGAAKTEGAAALPPPPPVSPPALTPAPAAGEEGPAPLSETGAPGCSGSRPPELEPERSLGRFRGRFEDEDEELEEEEELEEEEEEEEEDMSHFSLRLEGGRQDSEDEEERLINLSELTPYILCSICKGYLIDATTITECLHTFCKSCIVRHFYYSNRCPKCNIVVHQTQPLYNIRLDRQLQDIVYKLVINLEEREKKQMHDFYKERGLEVPKPAVPQPVPSSKGRSKKVLESVFRIPPELDMSLLLEFIGANEGTGHFKPLEKKFVRVSGEATIGHVEKFLRRKMGLDPACQVDIICGDHLLEQYQTLREIRRAIGDAAMQDGLLVLHYGLVVSPLKIT
As to B3, in assay [1], the binding entry is “binds”.

B4: PCGF2 (protein, UniProt P35227 1-344)
chain: MHRTTRIKITELNPHLMCALCGGYFIDATTIVECLHSFCKTCIVRYLETNKYCPMCDVQVHKTRPLLSIRSDKTLQDIVYKLVPGLFKDEMKRRRDFYAAYPLTEVPNGSNEDRGEVLEQEKGALSDDEIVSLSIEFYEGARDRDEKKGPLENGDGDKEKTGVRFLRCPAAMTVMHLAKFLRNKMDVPSKYKVEVLYEDEPLKEYYTLMDIAYIYPWRRNGPLPLKYRVQPACKRLTLATVPTPSEGTNTSGASECESVSDKAPSPATLPATSSSLPSPATPSHGSPSSHGPPATHPTSPTPPSTASGATTAANGGSLNCLQTPSSTSRGRKMTVNGAPVPPLT
For the molecule B4, the binding result in assay [1] was “binds”.
